Assay results from US20100278983A1, “COMPOSITION OF MONASCUS FERMENTED PRODUCT WITH A FUNCTION THAT REDUCES BODY FATNESS FORMATION AND THE METHOD FOR MANUFACTURING THE SAME” (SUNWAY BIOTECH CO., LTD., priority 2009, published 2010).
For at least one compound, name, drawing or mass did not settle the structure.

System: 3T3-L1 preadipocyte
Experiment: Proliferation rate of 3T3-L1 preadipocyte
Type: cell-based
Description: 3T3-L1 preadipocyte is used as the experimental material in the in vitro cellular experiments to probe into the effects of Monascus fermented product on proliferation and differentiation in preadipocyte.

Row | SMILES | inhibition to the proliferation of 3T3-L1 preadipocyte (1 mg/mL, 24~72 hours) | effects on proliferation of 3T3-L1 preadipocyte (each concentration group, 24 and 48 hours)
1 | C/C=C/C1=CC2=C(CO1)C(=O)[C@]1(C)OC(=O)[C@H](C(=O)CCCCCCC)[C@H]1C2 [ankaflavin] | significant effects on the inhibition | –
2 | C/C=C/C1=CC2=C(CO1)C(=O)[C@]1(C)OC(=O)[C@H](C(=O)CCCCC)[C@H]1C2 [monascin] | – | insignificant
